# According to the supplement of paper PMC6411743:
# Amino acid sequences for entries named in this document (tags omitted). A change or cut given only in a name is not applied to a line headed by its entry.
# UniProt Q96C19: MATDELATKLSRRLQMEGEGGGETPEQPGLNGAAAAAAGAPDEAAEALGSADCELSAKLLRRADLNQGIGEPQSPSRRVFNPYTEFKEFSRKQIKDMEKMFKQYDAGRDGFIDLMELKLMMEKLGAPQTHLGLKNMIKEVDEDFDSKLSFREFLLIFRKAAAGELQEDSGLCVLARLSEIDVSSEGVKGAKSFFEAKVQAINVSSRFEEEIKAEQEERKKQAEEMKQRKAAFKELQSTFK
# UniProt Q969R5, whole entry: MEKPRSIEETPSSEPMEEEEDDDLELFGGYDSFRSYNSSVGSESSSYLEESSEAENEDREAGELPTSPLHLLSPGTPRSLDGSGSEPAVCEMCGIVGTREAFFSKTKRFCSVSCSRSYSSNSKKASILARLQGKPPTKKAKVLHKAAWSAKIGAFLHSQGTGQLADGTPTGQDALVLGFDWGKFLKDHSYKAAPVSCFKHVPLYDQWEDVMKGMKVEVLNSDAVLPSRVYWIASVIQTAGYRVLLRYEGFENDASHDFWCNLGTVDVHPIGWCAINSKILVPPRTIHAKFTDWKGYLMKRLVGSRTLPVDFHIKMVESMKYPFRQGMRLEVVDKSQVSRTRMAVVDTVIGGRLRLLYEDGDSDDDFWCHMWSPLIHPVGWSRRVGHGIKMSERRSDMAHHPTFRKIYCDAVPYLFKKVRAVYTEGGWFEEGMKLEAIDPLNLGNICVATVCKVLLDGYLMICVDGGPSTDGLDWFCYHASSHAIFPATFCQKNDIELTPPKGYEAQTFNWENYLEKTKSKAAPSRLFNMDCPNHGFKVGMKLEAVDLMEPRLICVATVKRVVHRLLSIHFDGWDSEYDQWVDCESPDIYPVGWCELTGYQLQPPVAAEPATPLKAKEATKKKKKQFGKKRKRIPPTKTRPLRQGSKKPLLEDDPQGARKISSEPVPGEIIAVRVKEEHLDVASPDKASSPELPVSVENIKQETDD
# UniProt Q96EB6: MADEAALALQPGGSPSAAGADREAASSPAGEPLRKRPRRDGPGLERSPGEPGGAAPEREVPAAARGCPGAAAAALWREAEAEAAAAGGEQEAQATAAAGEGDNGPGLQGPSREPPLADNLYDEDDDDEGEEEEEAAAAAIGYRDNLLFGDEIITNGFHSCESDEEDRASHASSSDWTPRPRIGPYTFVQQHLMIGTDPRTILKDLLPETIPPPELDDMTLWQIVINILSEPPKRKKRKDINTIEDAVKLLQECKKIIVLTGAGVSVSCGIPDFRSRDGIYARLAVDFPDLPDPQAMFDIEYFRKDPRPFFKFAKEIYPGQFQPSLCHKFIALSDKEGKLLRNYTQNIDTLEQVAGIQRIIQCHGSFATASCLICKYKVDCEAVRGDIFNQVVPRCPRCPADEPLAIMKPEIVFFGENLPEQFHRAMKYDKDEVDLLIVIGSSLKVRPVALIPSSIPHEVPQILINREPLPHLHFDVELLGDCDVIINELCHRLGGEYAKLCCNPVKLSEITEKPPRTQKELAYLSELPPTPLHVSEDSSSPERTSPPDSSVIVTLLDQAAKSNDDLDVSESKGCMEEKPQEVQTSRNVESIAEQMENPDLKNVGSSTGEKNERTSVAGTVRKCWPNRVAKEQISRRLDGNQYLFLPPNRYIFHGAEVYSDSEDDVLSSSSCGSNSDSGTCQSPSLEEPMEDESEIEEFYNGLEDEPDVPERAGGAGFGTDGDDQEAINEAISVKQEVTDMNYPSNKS
# UniProt Q96AT1: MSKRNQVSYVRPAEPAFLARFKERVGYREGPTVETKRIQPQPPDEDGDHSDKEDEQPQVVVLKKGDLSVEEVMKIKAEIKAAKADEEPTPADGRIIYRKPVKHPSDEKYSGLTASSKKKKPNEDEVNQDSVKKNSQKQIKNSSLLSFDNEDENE
# UniProt Q96F44: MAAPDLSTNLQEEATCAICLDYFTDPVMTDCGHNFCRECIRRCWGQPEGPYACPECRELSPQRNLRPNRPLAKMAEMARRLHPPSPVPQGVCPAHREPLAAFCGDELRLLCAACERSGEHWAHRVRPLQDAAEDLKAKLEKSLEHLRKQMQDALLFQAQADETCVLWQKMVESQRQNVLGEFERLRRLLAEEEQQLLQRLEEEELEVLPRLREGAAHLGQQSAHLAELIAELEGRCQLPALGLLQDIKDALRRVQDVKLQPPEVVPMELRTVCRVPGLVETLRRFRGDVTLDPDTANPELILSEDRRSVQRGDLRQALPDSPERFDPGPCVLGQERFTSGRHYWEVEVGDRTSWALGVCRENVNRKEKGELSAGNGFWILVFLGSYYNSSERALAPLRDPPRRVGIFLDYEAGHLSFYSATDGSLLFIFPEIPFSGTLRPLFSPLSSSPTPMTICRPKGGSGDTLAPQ
# UniProt Q96IX5: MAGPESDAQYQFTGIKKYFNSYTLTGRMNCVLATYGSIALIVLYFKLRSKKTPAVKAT
# UniProt Q96FX2: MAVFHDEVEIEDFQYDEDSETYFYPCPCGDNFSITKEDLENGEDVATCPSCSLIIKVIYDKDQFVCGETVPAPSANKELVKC
# UniProt Q96GN5: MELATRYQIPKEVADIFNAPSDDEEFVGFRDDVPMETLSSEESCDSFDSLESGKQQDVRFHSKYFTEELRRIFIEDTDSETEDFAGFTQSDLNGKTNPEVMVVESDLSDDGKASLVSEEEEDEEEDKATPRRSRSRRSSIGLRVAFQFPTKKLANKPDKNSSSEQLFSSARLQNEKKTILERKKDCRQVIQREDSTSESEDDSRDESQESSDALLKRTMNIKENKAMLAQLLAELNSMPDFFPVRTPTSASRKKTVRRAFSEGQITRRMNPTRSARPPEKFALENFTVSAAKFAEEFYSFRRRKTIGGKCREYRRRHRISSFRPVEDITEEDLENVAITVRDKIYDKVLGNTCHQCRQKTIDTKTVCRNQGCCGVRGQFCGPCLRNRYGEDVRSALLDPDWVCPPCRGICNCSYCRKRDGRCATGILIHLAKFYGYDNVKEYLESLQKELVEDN
# UniProt Q96GD0: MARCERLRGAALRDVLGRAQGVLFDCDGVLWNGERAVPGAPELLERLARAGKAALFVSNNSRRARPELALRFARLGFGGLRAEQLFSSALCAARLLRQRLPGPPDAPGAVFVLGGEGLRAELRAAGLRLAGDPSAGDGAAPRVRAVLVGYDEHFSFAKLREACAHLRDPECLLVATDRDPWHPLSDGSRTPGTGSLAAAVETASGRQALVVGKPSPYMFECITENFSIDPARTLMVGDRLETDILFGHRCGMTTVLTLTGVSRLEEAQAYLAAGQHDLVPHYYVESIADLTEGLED
# UniProt Q96JP5: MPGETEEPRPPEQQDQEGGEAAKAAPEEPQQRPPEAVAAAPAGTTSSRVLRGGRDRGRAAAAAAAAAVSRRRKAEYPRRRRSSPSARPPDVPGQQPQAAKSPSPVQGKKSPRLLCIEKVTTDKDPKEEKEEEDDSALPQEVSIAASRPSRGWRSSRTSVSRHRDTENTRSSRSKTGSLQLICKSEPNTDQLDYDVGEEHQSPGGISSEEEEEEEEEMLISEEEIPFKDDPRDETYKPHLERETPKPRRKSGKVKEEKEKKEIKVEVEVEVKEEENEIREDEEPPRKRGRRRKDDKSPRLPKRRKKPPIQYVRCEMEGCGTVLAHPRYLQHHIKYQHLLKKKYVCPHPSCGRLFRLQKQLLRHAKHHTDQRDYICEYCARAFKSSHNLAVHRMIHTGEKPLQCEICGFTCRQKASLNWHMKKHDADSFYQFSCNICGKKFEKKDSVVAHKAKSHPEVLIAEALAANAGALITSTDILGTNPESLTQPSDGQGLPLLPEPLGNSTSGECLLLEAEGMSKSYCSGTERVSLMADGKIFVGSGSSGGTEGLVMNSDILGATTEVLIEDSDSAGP
# UniProt Q96BW9: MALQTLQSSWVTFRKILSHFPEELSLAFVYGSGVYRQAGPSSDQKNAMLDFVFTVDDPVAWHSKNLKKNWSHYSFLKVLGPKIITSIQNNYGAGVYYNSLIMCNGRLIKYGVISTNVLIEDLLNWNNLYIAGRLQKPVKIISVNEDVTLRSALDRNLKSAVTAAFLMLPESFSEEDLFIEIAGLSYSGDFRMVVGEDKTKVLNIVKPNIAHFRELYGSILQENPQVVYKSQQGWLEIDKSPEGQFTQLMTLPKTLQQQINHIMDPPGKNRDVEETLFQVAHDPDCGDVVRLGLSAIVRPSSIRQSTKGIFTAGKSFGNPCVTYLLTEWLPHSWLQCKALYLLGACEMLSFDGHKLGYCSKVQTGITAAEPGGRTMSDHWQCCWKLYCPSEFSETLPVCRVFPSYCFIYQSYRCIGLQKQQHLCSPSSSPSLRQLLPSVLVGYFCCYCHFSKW
# UniProt Q96MW1: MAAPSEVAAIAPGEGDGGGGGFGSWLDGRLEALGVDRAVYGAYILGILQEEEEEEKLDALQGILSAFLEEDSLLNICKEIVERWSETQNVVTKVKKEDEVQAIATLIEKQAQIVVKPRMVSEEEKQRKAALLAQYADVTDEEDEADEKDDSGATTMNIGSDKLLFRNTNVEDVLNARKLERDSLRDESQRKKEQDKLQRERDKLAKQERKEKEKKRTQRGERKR
# UniProt Q96KG9: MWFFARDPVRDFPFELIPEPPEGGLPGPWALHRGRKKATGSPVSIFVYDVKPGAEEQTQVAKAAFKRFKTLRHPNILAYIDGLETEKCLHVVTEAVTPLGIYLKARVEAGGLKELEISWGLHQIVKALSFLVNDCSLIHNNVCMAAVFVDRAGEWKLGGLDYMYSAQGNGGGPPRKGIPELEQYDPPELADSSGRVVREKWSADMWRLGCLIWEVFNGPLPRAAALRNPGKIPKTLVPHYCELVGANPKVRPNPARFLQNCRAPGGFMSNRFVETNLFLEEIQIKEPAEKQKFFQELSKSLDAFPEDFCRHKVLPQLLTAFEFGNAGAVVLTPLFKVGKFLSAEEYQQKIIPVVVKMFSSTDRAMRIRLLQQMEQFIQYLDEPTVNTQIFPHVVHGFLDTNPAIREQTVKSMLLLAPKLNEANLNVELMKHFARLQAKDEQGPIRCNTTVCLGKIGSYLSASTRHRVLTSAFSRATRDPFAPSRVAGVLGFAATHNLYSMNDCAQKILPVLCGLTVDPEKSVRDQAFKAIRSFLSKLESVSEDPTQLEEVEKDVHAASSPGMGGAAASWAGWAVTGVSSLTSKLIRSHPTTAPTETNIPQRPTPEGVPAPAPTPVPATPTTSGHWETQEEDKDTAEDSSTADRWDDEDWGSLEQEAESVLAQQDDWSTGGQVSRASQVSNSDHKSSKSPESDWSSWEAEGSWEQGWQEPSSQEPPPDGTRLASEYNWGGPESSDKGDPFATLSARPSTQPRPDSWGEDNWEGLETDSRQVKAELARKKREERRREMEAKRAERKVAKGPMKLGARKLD
# UniProt Q96AT9: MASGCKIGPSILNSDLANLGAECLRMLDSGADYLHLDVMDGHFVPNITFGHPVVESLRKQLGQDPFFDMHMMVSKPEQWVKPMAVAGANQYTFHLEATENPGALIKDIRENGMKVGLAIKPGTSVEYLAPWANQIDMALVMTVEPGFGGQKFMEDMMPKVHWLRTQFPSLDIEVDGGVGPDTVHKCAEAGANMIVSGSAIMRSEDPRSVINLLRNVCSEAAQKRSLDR
# UniProt Q93009, whole entry, looked up: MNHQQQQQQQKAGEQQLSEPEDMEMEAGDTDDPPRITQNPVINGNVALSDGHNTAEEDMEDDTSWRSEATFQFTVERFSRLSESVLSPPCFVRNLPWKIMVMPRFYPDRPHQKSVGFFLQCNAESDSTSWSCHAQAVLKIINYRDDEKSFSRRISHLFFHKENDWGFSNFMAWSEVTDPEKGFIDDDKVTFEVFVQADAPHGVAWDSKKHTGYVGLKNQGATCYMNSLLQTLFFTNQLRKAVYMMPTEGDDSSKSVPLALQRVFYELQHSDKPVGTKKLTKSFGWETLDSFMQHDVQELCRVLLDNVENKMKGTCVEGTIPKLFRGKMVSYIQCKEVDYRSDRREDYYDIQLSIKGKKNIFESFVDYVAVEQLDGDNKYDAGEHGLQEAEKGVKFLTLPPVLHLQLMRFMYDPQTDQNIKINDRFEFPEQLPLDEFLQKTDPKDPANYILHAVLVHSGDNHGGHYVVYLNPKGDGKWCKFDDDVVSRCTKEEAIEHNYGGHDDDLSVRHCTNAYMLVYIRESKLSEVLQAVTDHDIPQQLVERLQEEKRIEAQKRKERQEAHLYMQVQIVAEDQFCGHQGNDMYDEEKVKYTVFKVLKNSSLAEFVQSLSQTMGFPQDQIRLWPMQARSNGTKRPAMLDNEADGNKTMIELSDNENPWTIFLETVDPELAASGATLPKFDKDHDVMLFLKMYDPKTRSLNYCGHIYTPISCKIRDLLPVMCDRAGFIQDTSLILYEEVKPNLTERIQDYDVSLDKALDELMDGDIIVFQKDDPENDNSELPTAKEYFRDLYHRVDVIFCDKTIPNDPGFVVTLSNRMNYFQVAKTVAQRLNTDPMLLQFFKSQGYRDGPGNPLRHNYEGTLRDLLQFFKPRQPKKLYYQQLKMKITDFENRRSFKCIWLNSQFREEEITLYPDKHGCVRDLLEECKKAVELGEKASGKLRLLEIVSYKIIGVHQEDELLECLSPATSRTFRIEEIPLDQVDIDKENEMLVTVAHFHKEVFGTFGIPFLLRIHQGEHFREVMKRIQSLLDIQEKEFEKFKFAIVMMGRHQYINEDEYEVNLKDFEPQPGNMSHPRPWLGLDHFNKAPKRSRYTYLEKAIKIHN
# ± gives the standard deviation of the averaged measurements. The entries are a selection whose mix differs from that of the whole data set.
# Compound: Nc1ncnc2c1ncn2[C@@H]1O[C@H](COP(=O)(O)OP(=O)(O)NP(=O)(O)O)[C@@H](O)[C@H]1O [adenylyl imidodiphosphate]
# Assay: NP40-soluble protein abundance relative to vehicle (solubility fold change) (ratio); higher = more soluble protein in presence of AMP-PNP
# Summary of the method: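 Data come from three independent experiments in which Dounce-homogenised Jurkat crude lysate was treated at eight concentrations from 0.1 to 10 mM. Treatment ran 10 min at room temperature and then 3 min at 37 °C, after which 0.8% NP40 and benzonase were added for 60 min at 4 °C before ultracentrifugation. The supernatant underwent TMT labelling and LC-MS/MS, and vsn-normalised intensities were expressed as fold change against the detergent-processed vehicle in each replicate.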
Target,NP40-soluble protein abundance (concentration: 1mM),NP40-soluble protein abundance (concentration: 2mM),NP40-soluble protein abundance (concentration: 4mM),NP40-soluble protein abundance (concentration: 6mM),NP40-soluble protein abundance (concentration: 8mM),NP40-soluble protein abundance (concentration: 10mM)
EFHD2 (UniProt Q96C19),0.991 ± 0.044,1.1 ± 0.2,0.989 ± 0.071,0.974 ± 0.03,0.939 ± 0.013,0.938 ± 0.066
L3MBTL2 (UniProt Q969R5),0.989 ± 0.014,1 ± 0.038,1.02 ± 0.029,0.991 ± 0.039,1.01 ± 0.017,0.987 ± 0.069
Sirt1 (UniProt Q96EB6),1.01 ± 0.031,1.04 ± 0.02,1.01 ± 0.024,1 ± 0.021,0.952 ± 0.013,0.979 ± 0.02
KIAA1143 (UniProt Q96AT1),1.06 ± 0.011,1.03 ± 0.06,1.004 ± 0.0028,0.931 ± 0.058,0.915 ± 0.019,0.939 ± 0.029
UniProt Q96F44 and related entries,1.01 ± 0.023,1.02 ± 0.038,1.05 ± 0.02,0.992 ± 0.039,0.987 ± 0.044,1.01 ± 0.05
UniProt Q96HD1 and related entries,0.999 ± 0.026,1.04 ± 0.042,1.02 ± 0.032,1 ± 0.012,0.99 ± 0.048,1.01 ± 0.023
UniProt Q96PU8 and related entries,0.996 ± 0.058,1.02 ± 0.051,0.978 ± 0.064,0.926 ± 0.019,0.933 ± 0.05,0.893 ± 0.032
UniProt Q96IX5,1 ± 0.019,1.06 ± 0.081,1.03 ± 0.043,1.09 ± 0.038,1.141 ± 0.006,1.14 ± 0.035
UniProt Q96E29 and related entries,0.962 ± 0.025,1 ± 0.016,0.97 ± 0.066,0.957 ± 0.064,0.96 ± 0.051,0.918 ± 0.054
WDR89 (UniProt Q96FK6),1.07 ± 0.031,1.09 ± 0.051,1.17 ± 0.033,1.18 ± 0.038,1.255 ± 0.0092,1.268 ± 0.011
DPH3 (UniProt Q96FX2),1.01 ± 0.038,1.01 ± 0.014,1 ± 0.033,1.03 ± 0.031,1.03 ± 0.027,1.02 ± 0.014
UniProt Q96F07-2,0.989 ± 0.049,0.97 ± 0.087,0.998 ± 0.031,0.938 ± 0.044,0.945 ± 0.033,0.921 ± 0.049
UniProt Q96GN5 and related entries,0.999 ± 0.015,1.03 ± 0.054,1.03 ± 0.053,1.08 ± 0.075,1.09 ± 0.086,1.11 ± 0.092
PDXP (UniProt Q96GD0),0.978 ± 0.02,0.935 ± 0.046,0.9594 ± 0.0086,0.983 ± 0.011,0.973 ± 0.012,0.97 ± 0.041
UniProt Q96JP5 and related entries,1.01 ± 0.017,1.05 ± 0.03,1.01 ± 0.021,1.04 ± 0.068,0.987 ± 0.057,1.01 ± 0.046
UniProt Q96BW9 and related entries,0.977 ± 0.045,0.948 ± 0.023,1 ± 0.026,1.02 ± 0.013,1.01 ± 0.013,0.985 ± 0.04
UniProt Q96HA7 and related entries,1 ± 0.017,0.9846 ± 0.006,1.03 ± 0.024,1.01 ± 0.026,0.996 ± 0.031,1.01 ± 0.04
SYAP1 (UniProt Q96A49),1 ± 0.046,1.06 ± 0.077,0.952 ± 0.072,0.94 ± 0.021,0.94 ± 0.039,0.918 ± 0.08
COG3 (UniProt Q96JB2),0.979 ± 0.028,0.999 ± 0.02,0.994 ± 0.035,0.948 ± 0.033,0.951 ± 0.04,0.954 ± 0.024
UniProt Q969S9 and related entries,0.991 ± 0.033,0.967 ± 0.029,1.01 ± 0.038,0.988 ± 0.012,0.989 ± 0.011,0.951 ± 0.012
UniProt Q96DI7 and related entries,0.98 ± 0.031,1.01 ± 0.054,1.04 ± 0.07,1.1 ± 0.023,1.12 ± 0.035,1.19 ± 0.093
ZNF622 (UniProt Q969S3),1.03 ± 0.013,1.04 ± 0.041,1.03 ± 0.029,1.08 ± 0.024,1.06 ± 0.042,1.12 ± 0.045
CCDC43 (UniProt Q96MW1),0.974 ± 0.057,1.05 ± 0.064,0.972 ± 0.048,0.93 ± 0.027,0.904 ± 0.042,0.9 ± 0.11
UniProt Q96KG9 and related entries,1.01 ± 0.071,0.954 ± 0.012,0.98 ± 0.028,0.9928 ± 0.0091,1 ± 0.019,0.974 ± 0.036
UniProt Q96AT9 and related entries,1.09 ± 0.035,1.16 ± 0.088,1.08 ± 0.058,1.03 ± 0.013,1.01 ± 0.031,1.05 ± 0.1
UniProt Q93084-2,1.03 ± 0.021,0.99 ± 0.026,1.04 ± 0.033,1.02 ± 0.044,1.02 ± 0.032,1.01 ± 0.018
UniProt Q96K17,1.01 ± 0.032,1.09 ± 0.1,1.04 ± 0.038,1.05 ± 0.036,1.04 ± 0.052,1.07 ± 0.059
RBM33 (UniProt Q96EV2),1.05 ± 0.029,1.08 ± 0.026,1.04 ± 0.0083,1.06 ± 0.021,1.05 ± 0.022,1.08 ± 0.023
CUL5 (UniProt Q93034),0.974 ± 0.033,0.913 ± 0.085,0.9849 ± 0.0057,0.959 ± 0.015,0.979 ± 0.017,0.933 ± 0.038
USP7 (UniProt Q93009),0.999 ± 0.01,0.917 ± 0.09,0.974 ± 0.021,0.959 ± 0.028,0.978 ± 0.018,0.949 ± 0.042

# Part of the list above, set out differently:
Target	NP40-soluble protein abundance (concentration: 1mM)	NP40-soluble protein abundance (concentration: 2mM)	NP40-soluble protein abundance (concentration: 4mM)	NP40-soluble protein abundance (concentration: 6mM)	NP40-soluble protein abundance (concentration: 8mM)	NP40-soluble protein abundance (concentration: 10mM)
L3MBTL2 (UniProt Q969R5)	0.989 ± 0.014	1 ± 0.038	1.02 ± 0.029	0.991 ± 0.039	1.01 ± 0.017	0.987 ± 0.069
Sirt1 (UniProt Q96EB6)	1.01 ± 0.031	1.04 ± 0.02	1.01 ± 0.024	1 ± 0.021	0.952 ± 0.013	0.979 ± 0.02
KIAA1143 (UniProt Q96AT1)	1.06 ± 0.011	1.03 ± 0.06	1.004 ± 0.0028	0.931 ± 0.058	0.915 ± 0.019	0.939 ± 0.029
WDR89 (UniProt Q96FK6)	1.07 ± 0.031	1.09 ± 0.051	1.17 ± 0.033	1.18 ± 0.038	1.255 ± 0.0092	1.268 ± 0.011
COG3 (UniProt Q96JB2)	0.979 ± 0.028	0.999 ± 0.02	0.994 ± 0.035	0.948 ± 0.033	0.951 ± 0.04	0.954 ± 0.024
UniProt Q969S9 and related entries	0.991 ± 0.033	0.967 ± 0.029	1.01 ± 0.038	0.988 ± 0.012	0.989 ± 0.011	0.951 ± 0.012
USP7 (UniProt Q93009)	0.999 ± 0.01	0.917 ± 0.09	0.974 ± 0.021	0.959 ± 0.028	0.978 ± 0.018	0.949 ± 0.042
